Consider one compound from US6960685B2 (TopoTarget UK Limited, priority 2000, dated 2005).

The test system of the experiment is NHEK-Ad primary human adult keratinocyte line. In words: Secondary assay: cell proliferation WST-1, NHEK-Ad. Format: cell-based. As to conditions: 48 h, read-out: Cell Proliferation Inhibition WST-1 IC50, NHEK-AD. The procedure:
Compounds with HDAC inhibition activity, as determined using the primary assay, were subsequently evaluated using secondary cell-based assays. The following cell lines were used:
NHEK-Ad—Primary human adult keratinocyte line (Cambrex Corp., East Rutherford, N.J., USA).
Cells were plated in 96-well plates at 3-10×10^3 cells/well in 100 μL of culture medium. The following day, different concentrations of candidate compounds were added and the cells incubated at 37° C. for 48 h. Subsequently, 10 μL/well of WST-1 reagent was added and the cells reincubated for 1 hour. After the incubation time, absorbance was measured.
WST-1 is a tetrazolium salt which is cleaved to formazan dye by cellular enzymes. An expansion in the number of viable cells results in an increase in the overall activity of mitochondrial dehydrogenases in the sample. This augmentation in the enzyme activity leads to an increase in the amount of formazan dye formed, which directly correlates to the number of metabolically active cells in the culture. The formazan dye produced is quantified by a scanning multiwell spectrophotometer by measuring the absorbance of the dye solution at 450 nm wavelength (reference wavelength 690 nm).
IC50 values were calculated using the software package Prism 3.0 (GraphPad Software Inc., San Diego, Calif.), setting top value at 100 and bottom value at 0.
(In general: Tetrazolium assays rely on reduction of a dye to a coloured formazan, in cell work by metabolically active cells.)

`O=C(CCCCCCC(=O)Nc1ccccc1)NO` [SAHA, suberoylanilide hydroxamic acid]: the IC50 was 5.37 µM.
